Experimental data taken from PubChem BioAssay AID686999 (Broad Institute, 2013).
Values joined by “and” are separate entries in the source; they are usually repeats but may differ in a detail not shown here. Equal entries are not always repeated. This list was built around the results that the source calls inconclusive (neither active nor inactive); the mix of calls is not that of the screen. Active and inactive are the calls of the source.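 How the source made its calls: active means active in every separate test run, each with half-maximal potency at or under twice its top valid dose; inconclusive means the separate test runs give conflicting calls; inactive means inactive in every test run, including signal rising instead.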

Test: Cryptococcus growth inhibition by alamar blue – cell lysis, cherry-picks, replicate tests, mechanism study for C. neoformans antifungal project, dose response (AID 686999)
Details: 72 h, at 30 µM (top of the series)

Structure (SMILES) | activity change, negative = inhibition
COC(=O)C1=C(C)N(Cc2ccc(Br)cc2)C(=S)NC1c1ccccc1 (centres undefined) | inconclusive: -15.7%
COC(=O)C1=C(C)N(Cc2ccc(F)cc2)C(=S)NC1c1cccc(Br)c1 (centres undefined) | inconclusive: 1.46%
COC(=O)C1=C(C)N(Cc2ccc(Br)cc2)C(=S)NC1c1cccc(Cl)c1 (centres undefined) | inconclusive: -2.51%
COC(=O)C1=C(C)N(Cc2ccc(Br)cc2)C(=S)NC1c1ccc(F)cc1 (centres undefined) | inconclusive: 8.1%
COC(=O)C1=C(C)N(Cc2ccc(Br)cc2)C(=S)NC1c1ccc(OC)cc1 (centres undefined) | inconclusive: 9.56%

Same assay, conditions: 72 h, at 35 µM (top of the series)

Structure (SMILES) | activity change, negative = inhibition
O=C(NC(=S)Nc1ccccc1N1CCOCC1)c1cccc([N+](=O)[O-])c1 | inactive: 3.65%
COC(=O)C1=C(C)N(Cc2ccc(F)cc2)C(=S)NC1c1cccc(F)c1 (centres undefined) | inconclusive: 0.208%
COc1ccc(CNC(=S)NCc2ccc(OC(C)C)cc2)cc1 | inactive: 13.2%
COC(=O)C1=C(C)N(Cc2ccccc2)C(=S)NC1c1ccc(Cl)cc1 (centres undefined) | inconclusive: -16.1%
COC(=O)C1=C(C)N(Cc2ccc(F)cc2)C(=S)NC1c1cccc(Cl)c1 (centres undefined) | inconclusive: 3.54% and inactive: 3.12%
O=C(Cc1ccccc1)N[C@H]1C=C[C@@H](CC(=O)N2CCOCC2)O[C@@H]1CO | inactive: 18.6%
COC(=O)C1=C(C)N(Cc2ccccc2)C(=S)N[C@H]1c1ccc(Br)cc1 | inconclusive: -4.63%
COc1cccc(NC(=S)N2CCC(Cc3ccccc3)CC2)c1 | inactive: -12.5%
COC(=O)C1=C(C)N(Cc2ccc(Cl)cc2)C(=S)NC1c1cccc(OC)c1 (centres undefined) | inconclusive: 2.66%
O=C(NC(=S)Nc1ccccc1N1CCCC1)c1ccccc1[N+](=O)[O-] | inactive: 16.2%
COC(=O)C1=C(C)N(Cc2ccccc2)C(=S)NC1c1cccc(Br)c1 (centres undefined) | inconclusive: 9%
CCc1ccc(C(C)NC(=S)NCc2ccc(F)cc2)cc1 (centres undefined) | inactive: -1.97%
COC(=O)C1=C(C)N(Cc2ccc(Br)cc2)C(=S)NC1c1ccc(F)cc1 (centres undefined) | inconclusive: -19.9%
COC(=O)C1=C(C)N(CC(C)C)C(=S)NC1c1ccc(-c2ccccc2)cc1 (centres undefined) | inconclusive: 12.6%
COC(=O)C1=C(C)N(Cc2ccc(Cl)cc2)C(=S)NC1c1ccc(F)cc1 (centres undefined) | inconclusive: 5.15%
CC(C)CC1(C)N=C(c2ccccc2)C(=S)N1 (centres undefined) | inactive: 24.5%
CCOC(=O)NC(=S)Nc1ccc(C(C)(C)C)cc1 | inconclusive: 10.8%
COC(=O)C1=C(C)N(Cc2ccc(Br)cc2)C(=S)NC1c1ccc(OC)cc1 (centres undefined) | inconclusive: 4.5%
COC(=O)C1=C(C)N(CC(C)C)C(=S)NC1c1ccc(Cl)cc1 (centres undefined) | inconclusive: 10.1%
